Source: the supplement of paper PMC12819154, “High-throughput peptide-centric local stability assay extends protein–ligand identification to membrane proteins, tissues and bacteria” (Nature Structural & Molecular Biology, 2025)
Some of the results follow. Most values lie at the level of the controls, where differences are scatter.

The chains behind the UniProt entries cited, without tags or fusion partners. Where a name states a change or a piece, a line headed by the entry shows the natural chain unless it says otherwise.
UniProt O15498: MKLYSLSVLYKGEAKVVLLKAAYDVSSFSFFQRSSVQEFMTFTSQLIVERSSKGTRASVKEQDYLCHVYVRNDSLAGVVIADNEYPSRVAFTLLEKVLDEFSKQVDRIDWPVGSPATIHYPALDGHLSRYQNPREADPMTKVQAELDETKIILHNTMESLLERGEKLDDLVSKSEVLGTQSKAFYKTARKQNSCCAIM
UniProt O75157: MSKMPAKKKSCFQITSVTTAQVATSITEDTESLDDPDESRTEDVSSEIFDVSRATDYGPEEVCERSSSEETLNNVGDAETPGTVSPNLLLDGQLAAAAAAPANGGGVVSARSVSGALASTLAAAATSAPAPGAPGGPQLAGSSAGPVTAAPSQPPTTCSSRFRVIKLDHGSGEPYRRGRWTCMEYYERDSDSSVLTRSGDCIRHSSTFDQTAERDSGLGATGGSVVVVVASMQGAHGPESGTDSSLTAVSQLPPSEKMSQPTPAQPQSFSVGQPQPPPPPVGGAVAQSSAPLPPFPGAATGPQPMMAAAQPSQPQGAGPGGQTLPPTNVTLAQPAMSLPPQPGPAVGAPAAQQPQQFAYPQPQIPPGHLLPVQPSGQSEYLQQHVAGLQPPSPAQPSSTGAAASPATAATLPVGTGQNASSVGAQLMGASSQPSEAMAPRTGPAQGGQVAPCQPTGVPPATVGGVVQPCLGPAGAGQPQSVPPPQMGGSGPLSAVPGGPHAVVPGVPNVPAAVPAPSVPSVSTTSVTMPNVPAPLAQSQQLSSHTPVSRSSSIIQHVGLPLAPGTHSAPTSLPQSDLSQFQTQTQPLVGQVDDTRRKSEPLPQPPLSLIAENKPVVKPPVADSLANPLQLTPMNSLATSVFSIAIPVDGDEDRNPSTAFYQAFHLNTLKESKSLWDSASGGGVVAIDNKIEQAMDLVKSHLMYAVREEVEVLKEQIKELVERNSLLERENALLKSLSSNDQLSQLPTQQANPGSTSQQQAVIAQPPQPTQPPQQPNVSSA
UniProt O60563, whole entry: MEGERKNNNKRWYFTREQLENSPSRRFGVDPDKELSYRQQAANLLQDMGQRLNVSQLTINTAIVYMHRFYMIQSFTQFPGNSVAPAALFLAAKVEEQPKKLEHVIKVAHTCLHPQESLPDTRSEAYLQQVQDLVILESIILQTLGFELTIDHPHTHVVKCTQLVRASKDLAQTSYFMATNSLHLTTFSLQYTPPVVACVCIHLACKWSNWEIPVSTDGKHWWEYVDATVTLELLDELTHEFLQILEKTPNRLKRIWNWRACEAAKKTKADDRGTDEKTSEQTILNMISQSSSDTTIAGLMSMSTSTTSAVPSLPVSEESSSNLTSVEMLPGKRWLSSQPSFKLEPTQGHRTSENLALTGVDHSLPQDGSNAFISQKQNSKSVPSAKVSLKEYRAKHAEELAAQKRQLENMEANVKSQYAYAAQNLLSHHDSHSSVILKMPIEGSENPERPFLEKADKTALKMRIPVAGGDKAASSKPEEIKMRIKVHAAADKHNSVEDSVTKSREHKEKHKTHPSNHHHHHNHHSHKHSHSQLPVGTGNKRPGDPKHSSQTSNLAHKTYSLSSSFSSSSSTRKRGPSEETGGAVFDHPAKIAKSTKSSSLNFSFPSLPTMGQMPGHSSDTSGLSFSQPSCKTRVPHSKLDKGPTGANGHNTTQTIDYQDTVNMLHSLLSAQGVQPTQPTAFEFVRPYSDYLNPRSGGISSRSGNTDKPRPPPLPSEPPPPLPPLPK
UniProt O43502: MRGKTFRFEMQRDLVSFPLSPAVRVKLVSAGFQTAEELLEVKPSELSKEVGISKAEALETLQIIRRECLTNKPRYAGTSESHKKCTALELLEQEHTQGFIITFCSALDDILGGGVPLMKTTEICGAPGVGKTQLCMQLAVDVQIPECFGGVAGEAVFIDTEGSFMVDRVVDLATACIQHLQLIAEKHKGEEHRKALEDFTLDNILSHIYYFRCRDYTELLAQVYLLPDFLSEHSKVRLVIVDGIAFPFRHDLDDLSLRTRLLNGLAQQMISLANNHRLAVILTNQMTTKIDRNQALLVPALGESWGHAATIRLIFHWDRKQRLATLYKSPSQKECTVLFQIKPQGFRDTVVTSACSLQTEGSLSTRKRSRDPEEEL
UniProt O60664: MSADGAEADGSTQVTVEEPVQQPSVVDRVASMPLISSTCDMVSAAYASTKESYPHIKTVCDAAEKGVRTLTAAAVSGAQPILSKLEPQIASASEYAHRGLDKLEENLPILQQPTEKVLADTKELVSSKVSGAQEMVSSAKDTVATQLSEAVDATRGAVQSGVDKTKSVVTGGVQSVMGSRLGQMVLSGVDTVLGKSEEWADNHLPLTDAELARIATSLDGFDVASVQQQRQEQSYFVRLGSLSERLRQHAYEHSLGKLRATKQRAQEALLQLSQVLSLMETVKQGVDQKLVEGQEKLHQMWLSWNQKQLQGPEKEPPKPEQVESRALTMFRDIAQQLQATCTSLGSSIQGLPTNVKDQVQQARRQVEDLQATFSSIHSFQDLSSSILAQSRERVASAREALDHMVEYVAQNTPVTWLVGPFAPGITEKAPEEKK
UniProt O43896: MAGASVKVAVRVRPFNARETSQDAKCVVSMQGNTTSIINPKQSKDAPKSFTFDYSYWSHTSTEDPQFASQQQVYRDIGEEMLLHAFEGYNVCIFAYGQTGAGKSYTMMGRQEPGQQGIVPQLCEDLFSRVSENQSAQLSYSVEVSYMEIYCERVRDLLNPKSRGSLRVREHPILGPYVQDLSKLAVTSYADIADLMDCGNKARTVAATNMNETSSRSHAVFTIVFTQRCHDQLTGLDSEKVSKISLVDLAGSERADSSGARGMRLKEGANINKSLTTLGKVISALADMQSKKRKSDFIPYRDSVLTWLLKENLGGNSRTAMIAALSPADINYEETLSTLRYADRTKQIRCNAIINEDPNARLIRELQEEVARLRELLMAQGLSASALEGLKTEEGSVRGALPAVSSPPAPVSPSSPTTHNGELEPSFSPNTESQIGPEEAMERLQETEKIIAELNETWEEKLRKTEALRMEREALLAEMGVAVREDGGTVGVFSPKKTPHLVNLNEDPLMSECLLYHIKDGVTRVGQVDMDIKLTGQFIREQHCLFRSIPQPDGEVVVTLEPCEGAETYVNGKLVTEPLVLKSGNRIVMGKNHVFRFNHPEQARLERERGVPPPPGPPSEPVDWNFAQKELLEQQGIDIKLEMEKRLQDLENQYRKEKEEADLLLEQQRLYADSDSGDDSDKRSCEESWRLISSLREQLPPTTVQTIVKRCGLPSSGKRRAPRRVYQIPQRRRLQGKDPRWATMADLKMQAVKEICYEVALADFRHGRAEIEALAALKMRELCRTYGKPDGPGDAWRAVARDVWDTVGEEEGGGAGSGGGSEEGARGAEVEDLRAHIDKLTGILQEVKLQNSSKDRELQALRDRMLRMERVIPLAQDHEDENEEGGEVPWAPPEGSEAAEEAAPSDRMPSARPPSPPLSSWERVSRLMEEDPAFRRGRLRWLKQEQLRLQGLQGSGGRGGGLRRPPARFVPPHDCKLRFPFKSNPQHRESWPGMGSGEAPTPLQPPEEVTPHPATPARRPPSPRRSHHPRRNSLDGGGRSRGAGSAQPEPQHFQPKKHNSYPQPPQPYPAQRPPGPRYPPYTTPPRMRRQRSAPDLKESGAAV
UniProt O60548: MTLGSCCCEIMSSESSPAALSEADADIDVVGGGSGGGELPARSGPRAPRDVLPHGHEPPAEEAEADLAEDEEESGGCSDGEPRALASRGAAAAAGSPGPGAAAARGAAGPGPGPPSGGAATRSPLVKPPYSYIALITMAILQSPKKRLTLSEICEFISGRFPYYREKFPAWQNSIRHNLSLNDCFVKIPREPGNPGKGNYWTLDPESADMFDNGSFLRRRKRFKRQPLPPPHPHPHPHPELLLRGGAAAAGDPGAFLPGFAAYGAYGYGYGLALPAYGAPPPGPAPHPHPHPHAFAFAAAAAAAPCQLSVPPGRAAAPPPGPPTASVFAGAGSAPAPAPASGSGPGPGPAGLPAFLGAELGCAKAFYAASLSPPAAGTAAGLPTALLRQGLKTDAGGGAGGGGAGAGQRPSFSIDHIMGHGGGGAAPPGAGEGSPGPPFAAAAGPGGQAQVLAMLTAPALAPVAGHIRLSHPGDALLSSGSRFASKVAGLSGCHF
UniProt O43156, whole entry: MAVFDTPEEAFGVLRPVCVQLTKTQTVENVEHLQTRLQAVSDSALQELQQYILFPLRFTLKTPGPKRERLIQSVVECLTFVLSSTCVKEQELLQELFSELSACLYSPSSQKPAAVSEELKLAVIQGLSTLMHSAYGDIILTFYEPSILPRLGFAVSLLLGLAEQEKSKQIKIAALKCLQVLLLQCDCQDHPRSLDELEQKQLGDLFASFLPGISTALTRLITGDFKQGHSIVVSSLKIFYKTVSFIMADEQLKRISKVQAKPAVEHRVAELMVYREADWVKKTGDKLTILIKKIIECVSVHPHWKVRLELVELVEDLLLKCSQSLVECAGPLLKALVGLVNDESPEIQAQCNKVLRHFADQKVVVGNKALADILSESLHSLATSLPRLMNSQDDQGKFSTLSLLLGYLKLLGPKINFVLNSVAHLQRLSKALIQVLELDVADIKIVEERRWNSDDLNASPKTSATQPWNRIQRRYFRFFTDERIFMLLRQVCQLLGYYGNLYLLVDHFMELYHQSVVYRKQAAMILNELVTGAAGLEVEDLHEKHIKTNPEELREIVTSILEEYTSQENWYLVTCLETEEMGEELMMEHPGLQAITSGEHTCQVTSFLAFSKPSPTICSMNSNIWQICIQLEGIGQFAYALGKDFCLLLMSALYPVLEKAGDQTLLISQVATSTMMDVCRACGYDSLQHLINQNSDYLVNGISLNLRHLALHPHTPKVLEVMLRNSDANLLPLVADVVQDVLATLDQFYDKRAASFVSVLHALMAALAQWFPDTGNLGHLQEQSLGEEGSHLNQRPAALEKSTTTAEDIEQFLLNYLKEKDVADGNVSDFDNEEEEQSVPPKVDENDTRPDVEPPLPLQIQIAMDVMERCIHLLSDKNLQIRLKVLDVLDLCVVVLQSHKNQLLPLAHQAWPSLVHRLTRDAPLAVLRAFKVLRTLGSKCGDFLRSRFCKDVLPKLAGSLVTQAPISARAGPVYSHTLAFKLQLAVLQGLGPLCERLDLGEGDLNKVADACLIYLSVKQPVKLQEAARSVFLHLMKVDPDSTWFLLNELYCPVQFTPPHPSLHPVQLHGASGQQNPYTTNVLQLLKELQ

compound: CN[C@@H]1C[C@H]2O[C@@](C)([C@@H]1OC)n1c3ccccc3c3c4c(c5c6ccccc6n2c5c31)C(=O)NC4 [staurosporine]; assay: log2 fold change of tryptic peptide abundance, ligand vs vehicle (limited proteolysis) (log2 ratio); higher = more trypsin-susceptible (destabilized); details: ligand concentration: 20 uM; sample: K562 cleared lysate; digestion: 4 min, 22 C (HT-PELSA RT4min, Orbitrap Astral)

Row | Target | log2 fold change
1 | YKT6 (peptide sequence: VAFTLLEK, peptide start residue: 89) (UniProt O15498) | 0.161
2 | TSC22D2 (peptide sequence: HSSTFDQTAER, peptide start residue: 204) (UniProt O75157) | 0.184
3 | CCNT1 (peptide sequence: VAHTCLHPQESLPDTR, peptide start residue: 107) (UniProt O60563) | -0.956
4 | RAD51C (peptide sequence: AEALETLQIIRR, peptide start residue: 55) (UniProt O43502) | -0.17
5 | UniProt O60664 (peptide sequence: QHAYEHSLGK, peptide start residue: 248) | 0.314
6 | KIF1C (peptide sequence: SRGAGSAQPEPQHFQPK, peptide start residue: 1040) (UniProt O43896) | -0.945
7 | UniProt O60548 (peptide sequence: GAAAAAGSPGPGAAAAR, peptide start residue: 89) | -0.124
8 | UniProt O43156 (peptide sequence: TSATQPWNR, peptide start residue: 462) | 0.317
